{"source": "paper PMC2215330", "target": "EBV-Z (wild type, from expression plasmid) (Epstein-Barr virus) (UniProt P03206)", "test": "co-IP", "note": "These are yes or no findings as the source states them, for the method shown. Binding seen in cells or lysates may run through a third protein.", "data": [{"substance": "K-RTA-DLR (K-RTA with deletion of the leucine heptapeptide repeat region) (from UniProt F5HCV3 1-691)", "values": [{"measurement": "binding", "result": "no binding"}]}]}
